From PMC10234410

The chains behind the UniProt entries cited, without tags or fusion partners.
UniProt M9PFG6, entry or part of it: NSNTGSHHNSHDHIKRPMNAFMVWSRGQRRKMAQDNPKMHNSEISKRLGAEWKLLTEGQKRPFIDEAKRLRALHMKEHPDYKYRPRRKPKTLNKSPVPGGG

Biological target: Sox21aHMG-BD (Drosophila melanogaster) (UniProt M9PFG6)
Experiment: EMSA
Details: 25 mM HEPES pH 7.5, 40 mM KCl, 3 mM DTT, 10% glycerol, 0.1 mM EDTA, 0.5 mg/ml BSA, 0.5 mg/ml poly-glutamate, 25 C, 30 min; 6% native PAGE; recombinant protein; residues 108-208; protein details: His-tag at C-terminus (pET-28b); label: Cy5; probe letters rebuilt from the primers and the genome

“AGTCAGTAGAGATAAGTGCGCAGAGCAATAGGAAAAAATATTGCGCTCAATTCGAACAGAGTAAACGCCAGTAGGTAAATTCAAAAGGGTAACGGCCATAGAATTTGTTGTTCAACACTCAACAAAATACCGCGATACATACCAGAAAGTGTGCGATAGCCAGCGAAACGGGCACACCAATTCAGCTGACGCTTCACGTCCAATTCATTTTGGCATTTAAAAAATCGAACGGTTTCGGCGCGTTCTCCGCTTTGTGCTTGGTTTTCGTGCATTCTTATCTCTACTGACT (double strand) [Cy5-labeled F2-4 probe]”: binds.

For at least one entry, the source does not settle the construct or the ends of the probe.
